Measured data: PubChem BioAssay AID1671195 (Yale University, 2021)

Assay: 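Genes whose knockdown alters LDL uptake in liver cancer cells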 (primary screen)
Cell system: human Huh7 hepatoma cells
Knock-down reagent: siRNA pool against human genes, 18 nM
Time to read-out: about 2 to 2.5 days of knockdown, then 8 h LDL uptake
Conditions: DiI-labelled LDL at 30 µg/ml for 8 h, in lipoprotein-deficient serum medium
Read-out: 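Fluorescent LDL signal imaged in cells, scaled to the plate median, robust z-score for each replicate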
Reading the numbers: robust z-score: higher = more LDL uptake after knockdown
Active means: 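Active when two or more replicates show a robust z-score above 2 or below -2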
The deposit covers about 22,000 reagents; shown is a part drawn at random. About 1,510 of them (6.9%) were called active. 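Active includes knockdowns raising or lowering LDL uptake; positive z-scores mean more uptake, negative mean less.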 The numbers tell different reagents against one gene apart.

| gene knocked down | reagent | robust z-score, replicate 1 | robust z-score, replicate 2 | robust z-score, replicate 3 | call |
| --- | --- | --- | --- | --- | --- |
| EFNB2 | 1 | 2.43 | 2.91 | 1.73 | active |
| LDB1 | 1 | 0.00797 | 0.0844 | -1.53 | inactive |
| CFAP107 | 1 | -0.297 | -0.817 | -1 | inactive |
| SCUBE2 | 1 | -0.519 | -0.313 | -0.466 | inactive |
| SAYSD1 | 1 | -0.378 | 0.081 | -0.0061 | inactive |
| NMS | 1 | 0.881 | -0.756 | -0.373 | inactive |
| FKBP3 | 1 | 0.272 | 0.38 | 0.413 | inactive |
| ABCG8 | 1 | -0.177 | -0.0786 | -0.512 | inactive |
| SMIM14 | 1 | 1.41 | 1.53 | 0.904 | inactive |
| LOC442380 (retired record) | 1 | -3.62 | -3.57 | -3.28 | active |
| MN1 | 1 | 0.281 | 0.247 | 0.719 | inactive |
| LOC393076 (retired record) | 1 | -1.12 | -1.05 | -0.754 | inactive |
| STT3A | 1 | -0.179 | 1.65 | 1.35 | inactive |
| SQOR | 1 | 0.377 | -0.771 | 0.238 | inactive |
| LY86 | 1 | 2.8 | 1.84 | 0.864 | inactive |
| GUCY2C | 1 | -0.106 | 1.67 | 1.3 | inactive |
| BMPER | 1 | 0.261 | 0.414 | -0.159 | inactive |
| IRX6 | 1 | 0.593 | 0.655 | 0.466 | inactive |
| CARM1LP | 1 | 1.2 | 0.225 | 0.474 | inactive |
| FSCN2 | 1 | -0.0949 | -2.03 | 0.0631 | inactive |
| INHBB | 1 | 0.698 | -0.591 | 0.46 | inactive |
| MVB12A | 1 | 0.244 | 0.601 | 0.464 | inactive |
| CFDP1 | 1 | -2.62 | -0.348 | -1.23 | inactive |
| RND2 | 1 | -1.48 | -1.16 | -1.23 | inactive |
| RHBDL3 | 1 | -1.44 | -1.57 | -1.74 | inactive |
| LOC151760 | 1 | -0.0549 | 0.15 | -0.437 | inactive |
| CCR5 | 1 | 1.07 | 0.596 | 1.35 | inactive |
| OLIG3 | 1 | -0.793 | -0.911 | -0.56 | inactive |
| ATG12 | 1 | 0.296 | -1.07 | -1.2 | inactive |
| AGTPBP1 | 1 | -0.87 | -0.83 | -0.533 | inactive |
| INIP | 1 | 1.12 | 1.18 | 0.879 | inactive |
| LOC728329 | 1 | -0.954 | -0.376 | -0.775 | inactive |
| LOC402695 (retired record) | 1 | 2.16 | 2.54 | 1.93 | active |
| NAA10 | 1 | -0.682 | -1.18 | -0.852 | inactive |
| LINC00545 | 1 | 2.05 | 1.88 | 1.6 | inactive |
| LOC728073 | 1 | -0.844 | -1.04 | -0.91 | inactive |
| HBEGF | 1 | -0.72 | 1.68 | -0.759 | inactive |
| GHDC | 1 | 2.43 | 1.67 | 1.86 | inactive |
| GBP3 | 1 | 6.41 | 4.61 | 4.32 | active |
| PHIP | 1 | 0.463 | 0.437 | 1.35 | inactive |
| RPL7P37 | 1 | 0.708 | 0.725 | -0.075 | inactive |
| RHPN1-AS1 | 1 | -1.93 | -1.31 | -1.66 | inactive |
| ART5 | 1 | 1.83 | 0.188 | 0.823 | inactive |
| SLC12A3 | 1 | -0.867 | 0.303 | -0.539 | inactive |
| OR9I1 | 1 | 0.0604 | -0.194 | -0.317 | inactive |
| THSD7A | 1 | 0.698 | 0.206 | 0.714 | inactive |
| OR2T1 | 1 | 0.945 | -0.683 | -1.23 | inactive |

Entries above marked active, once more:
| gene knocked down | reagent | robust z-score, replicate 1 | robust z-score, replicate 2 | robust z-score, replicate 3 | call |
| --- | --- | --- | --- | --- | --- |
| EFNB2 | 1 | 2.43 | 2.91 | 1.73 | active |
| LOC442380 (retired record) | 1 | -3.62 | -3.57 | -3.28 | active |
| LOC402695 (retired record) | 1 | 2.16 | 2.54 | 1.93 | active |
| GBP3 | 1 | 6.41 | 4.61 | 4.32 | active |

Additional reagents follow:
| gene knocked down | reagent | robust z-score, replicate 1 | robust z-score, replicate 2 | robust z-score, replicate 3 | call |
| --- | --- | --- | --- | --- | --- |
| TRHDE | 1 | 0.061 | -0.377 | -0.424 | inactive |
| LOC440710 (retired record) | 1 | 0.585 | 0.645 | 0.274 | inactive |
| SLC5A12 | 1 | 0.332 | 0.59 | 0.931 | inactive |
| KLK8 | 1 | -1.56 | -1.71 | -1.55 | inactive |
| LOC392443 (retired record) | 1 | -1.04 | 0.604 | 0.643 | inactive |
| SEC61A1 | 1 | -1.87 | -0.00608 | -0.487 | inactive |
| CABP2 | 1 | 0.508 | 0.181 | 0.612 | inactive |
| PTDSS1 | 1 | 0.274 | 1.51 | 1.25 | inactive |
| STK3 | 1 | 0.264 | -0.265 | 0.465 | inactive |
| CCDC66 | 1 | 0.492 | 0.622 | 0.727 | inactive |
| ADARB2 | 1 | -1.99 | -2.6 | -2.22 | active |
| METTL9 | 1 | -0.412 | 2.1 | 1.25 | inactive |
| MMP13 | 1 | 1.59 | 2.09 | 4.23 | active |
| UPF3B | 1 | -0.337 | -0.575 | 0.587 | inactive |
| PI4KA | 1 | -0.307 | 0.514 | -0.126 | inactive |
| DCDC1 | 1 | 3.21 | -0.54 | -0.848 | inactive |
| DCDC1 | 2 | 0.172 | -0.0634 | 0.159 | inactive |
| PPP2R3B | 1 | 2.25 | 2.43 | 1.87 | active |
| PEG10 | 1 | -1.04 | -1.3 | 0.213 | inactive |
| NMNAT1 | 1 | -0.941 | -1.61 | -1.45 | inactive |
| JOSD2 | 1 | -0.578 | -0.752 | 0.113 | inactive |
| NOCT | 1 | -0.849 | -1.35 | -1.11 | inactive |
| HNRNPA1 | 1 | 0.291 | 0.123 | 0.266 | inactive |
| DDIT4 | 1 | -0.688 | 1.13 | -1.43 | inactive |
| DNAL4 | 1 | 1.09 | 0.762 | 0.527 | inactive |
| DLX2 | 1 | -2.22 | -1.84 | -2.39 | active |
| EPB41L5 | 1 | -1.61 | -1.05 | -0.822 | inactive |
| TMEM102 | 1 | -0.352 | -0.317 | -0.164 | inactive |
| CENPBD2P | 1 | -0.933 | -0.814 | -1.12 | inactive |
| LOC440687 (retired record) | 1 | -0.188 | -0.316 | -0.395 | inactive |
| FBXO4 | 1 | 0.657 | 0.844 | 0.834 | inactive |
| LOC339209 (retired record) | 1 | 1.67 | 1.69 | 1.35 | inactive |
| LINC00934 | 1 | 2.61 | 1.48 | 2.51 | active |
| ARHGEF2 | 1 | 0.625 | 0.177 | 0.0822 | inactive |
| ENTPD4 | 1 | 0.636 | 0.504 | -0.182 | inactive |
| ATP5MC2 | 1 | -0.0161 | 0.529 | 0.21 | inactive |
| RXFP2 | 1 | -0.597 | -0.419 | -0.184 | inactive |
| IREB2 | 1 | -0.333 | 0.718 | 0.251 | inactive |
| HUS1B | 1 | 0.504 | 0.762 | 0.536 | inactive |
| GATA6 | 1 | -1.37 | -1.42 | -1.46 | inactive |
